According to PubChem BioAssay AID2099 (Broad Institute, 2009):
Hit rate of the full screen: of about 330,000 compounds, about 230 (0.07%) were called active. Inconclusive means that the source gave no clear call. Such entries were picked first, then a sample of the others.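 The calls were made as follows: active = more than half of a compound's replicate wells show inhibition beyond 50%, single wells judged on their own value; inconclusive = some, but no more than half, of replicates pass 50% inhibition; inactive = no replicate passes 50% inhibition.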

The chains behind the UniProt entries cited, without tags or fusion partners. Residues count along the entry.
UniProt Q9H3R0, 1-420 limits assumed: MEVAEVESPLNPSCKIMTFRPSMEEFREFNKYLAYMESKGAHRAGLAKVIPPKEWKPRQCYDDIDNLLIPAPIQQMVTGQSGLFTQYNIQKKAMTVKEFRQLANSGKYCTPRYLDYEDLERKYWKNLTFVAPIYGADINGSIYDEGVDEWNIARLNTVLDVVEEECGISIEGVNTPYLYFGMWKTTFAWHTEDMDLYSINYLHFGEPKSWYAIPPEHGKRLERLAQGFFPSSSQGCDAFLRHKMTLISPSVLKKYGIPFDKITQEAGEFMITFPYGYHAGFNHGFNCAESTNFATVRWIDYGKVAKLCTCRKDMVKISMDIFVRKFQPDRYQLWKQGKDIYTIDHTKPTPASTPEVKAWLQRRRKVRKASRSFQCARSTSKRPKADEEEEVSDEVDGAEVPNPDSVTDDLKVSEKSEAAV

What follows are molecules tested against Lysine-specific demethylase 4C (Homo sapiens) (UniProt Q9H3R0) (assay: inhibitors of GASC-1 histone demethylase, primary screen, biochemical, fluorescence, DELFIA europium (AID 2099;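 also: signal counts dimethyl H3K9 product captured on neutravidin plate; 0% = median of DMSO wells and 100% = 0.3 times that DMSO median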)). Details: GST-JMJD2C(1-420) H3K9me3 demethylation, at 2.35 µM, active compounds read high.

How did the inhibition turn out when COc1ccc(S(=O)(=O)Nc2cccc3c2O[C@H](CN(C)Cc2ccc(C(=O)O)cc2)[C@@H](C)CN([C@H](C)CO)C3=O)cc1 was run?
Its inhibition is active: 58.2%.

With COc1ccc2cc1Oc1ccc(cc1)C[C@H]1c3cc(c(OC)cc3CCN1C)Oc1c(OC)c(OC)cc3c1[C@H](C2)N(C)CC3 as the molecule, how does the inhibition read?
Its inhibition is inconclusive: -50.3%.

COc1cccc(OCc2nc(-c3ccc(Br)o3)no2)c1 was tested. Which inhibition did it give?
Its inhibition is inconclusive: -58.2%.

With CCOC(=O)/C(C#N)=C1/C=CN(Cc2ccccc2)C=N1 as the molecule, how does the inhibition read?
Its inhibition is inconclusive: -62.2%.

Which inhibition does the source give for COc1cc(C)c(S(=O)(=O)n2ccc(C)n2)cc1C here?
Its inhibition is inconclusive: -26.6%.

How did the inhibition turn out when COc1ccc2c(Cl)c(C(=O)N/N=C/c3c(C)[nH]c4ccccc34)sc2c1 was run?
The inhibition was inactive: -40.5%.

CCCNC(=O)c1c(CSc2ccc(Cl)cc2)noc1C(=O)NCc1ccccc1 was tested. Which inhibition did it give?
Its inhibition is inconclusive: -54%.

Which inhibition does the source give for CC(=O)Nc1sc(N/N=C/c2ccccc2)nc1-c1ccc(C)cc1 here?
Its inhibition is inactive: -0.286%.

COc1cccc(N2C(=NC(=O)C3CCCO3)SC3CS(=O)(=O)CC32)c1 (stereo not drawn) was tested. Which inhibition did it give?
The inhibition was inconclusive: -181%.

With COc1cccc(N2CC(C(=O)N3CCC4(CC3)CC(=O)c3ccccc3O4)CC2=O)c1 (stereo not drawn) as the molecule, how does the inhibition read?
The inhibition was inconclusive: -193%.

CCOC(=O)C(c1ccccc1)C(Nc1ccc(F)cc1)c1ccccn1 (stereo not drawn) was tested. Which inhibition did it give?
Its inhibition is inconclusive: -40.6%.

With N#CC1=C2SCN(Cc3ccco3)CN2C(=O)CC1c1cccc2ccccc12 (stereo not drawn) as the molecule, how does the inhibition read?
Its inhibition is inactive: 7.09%.

Which inhibition does the source give for Cc1ccc(CO/N=C\Cc2snc(Sc3ncc(C(F)(F)F)cc3Cl)c2C#N)cc1 here?
Its inhibition is inconclusive: -52.3%.

CCN(c1ccc(OC)cc1)S(=O)(=O)c1nnc(NC(=O)COc2ccccc2)s1 was tested. Which inhibition did it give?
The inhibition was inactive: 4.72%.

COC(=O)CN(C#N)c1nc(SC)nc(N(C)C)n1 was tested. Which inhibition did it give?
Its inhibition is inconclusive: -70.8%.

Which inhibition does the source give for Cc1[nH]n(-c2ccc(Br)cc2)c(=O)c1/C=N/NC(=O)c1ccccc1 here?
Its inhibition is inconclusive: -50.2%.

For CCc1noc(C)c1C(=O)N1CCN(S(=O)(=O)c2ccc(C)cc2)CC1, which inhibition is on record?
The inhibition was inconclusive: -59.1%.

With Cc1ccc2oc(C(=O)N3CCN(CC(=O)NC(C)C)CC3)c(C)c2c1 as the molecule, how does the inhibition read?
Its inhibition is inconclusive: -85.8%.

How did the inhibition turn out when Nc1c(C(=O)c2ccc(Br)s2)oc2ccccc12 was run?
The inhibition was inconclusive: -108%.

Cn1c(=NC(=O)c2ccc3c(c2)OCCO3)sc2cc(S(C)(=O)=O)ccc21 was tested. Which inhibition did it give?
The inhibition was inconclusive: -53.9%.

How did the inhibition turn out when CCc1ccccc1NC(=O)Nc1ccc(F)cc1 was run?
Its inhibition is inactive: 14.8%.

For Cc1cc(-c2onc(C)c2C(N)=O)no1, which inhibition is on record?
The inhibition was inconclusive: -38.5%.

With COc1ccc(S(=O)(=O)N(CCN2CCOCC2)Cc2cc(OC)ccc2OC)cc1 as the molecule, how does the inhibition read?
The inhibition was inconclusive: -192%.

How did the inhibition turn out when CCCNc1nc2c(c(=O)[nH]c(=O)n2C)n1CCOc1ccccc1 was run?
The inhibition was inconclusive: -50.1%.

How did the inhibition turn out when CC(=O)Nc1cccc(NS(=O)(=O)c2cc3c4c(c2)CCN4C(=O)CC3)c1 was run?
Its inhibition is inconclusive: -70.6%.

Which inhibition does the source give for CSc1ccccc1NC(=O)c1ccc(C)o1 here?
The inhibition was inconclusive: -203%.

How did the inhibition turn out when CCOC(=O)CN(C(=O)CSc1nnc(-c2ccc(OC)c(OC)c2)o1)c1ccc(F)cc1 was run?
The inhibition was inconclusive: -80.5%.

For CCOC(=O)c1c(S(=O)(=O)N2c3ccccc3CC2C)c(C)n(C)c1C (stereo not drawn), which inhibition is on record?
The inhibition was inactive: 24.9%.

For COc1ccccc1CCC(=O)NNC(=O)c1cccs1, which inhibition is on record?
The inhibition was inactive: 1.19%.

Which inhibition does the source give for Cc1ccc(C)c(Cn2c(=O)n(CCC(=O)NCc3ccco3)c(=O)c3ccccc32)c1 here?
Its inhibition is inactive: 10.8%.

For Cc1c(OCC(=O)NCC2CCC(C(=O)NCCCO)CC2)ccc2c(-c3ccccc3)cc(=O)oc12 (stereo not drawn), which inhibition is on record?
The inhibition was inconclusive: -83.8%.

CCOc1cc(CNC(C)(C)C)ccc1OCC(=O)Nc1cccc(C(F)(F)F)c1 was tested. Which inhibition did it give?
The inhibition was inconclusive: -85.6%.

For O=C(NCCCN1CCOCC1)c1cc(-c2cccs2)on1, which inhibition is on record?
The inhibition was inconclusive: -202%.

With O=C(NCCNc1ccc([N+](=O)[O-])cc1C(F)(F)F)c1ccccc1 as the molecule, how does the inhibition read?
Its inhibition is active: 52%.

With COc1ccccc1NC(C)C(=O)N/N=C/c1cccs1 (stereo not drawn) as the molecule, how does the inhibition read?
The inhibition was inconclusive: -66.6%.

Which inhibition does the source give for CC(=O)Nc1cccc(C(=O)OCCCOc2ccc(F)cc2)c1 here?
The inhibition was inconclusive: -52.2%.

For C[C@]12CCC3C(CC[C@H]4CCCC[C@]34C)C1CC[C@@]2(O)CNCCO (stereo partly drawn), which inhibition is on record?
Its inhibition is inactive: 2.56%.

With COc1cc(CNc2nc3c(C)cc(C)cc3s2)ccc1O as the molecule, how does the inhibition read?
The inhibition was inactive: 1.07%.

For COc1ccc(N2CCN(C(=O)c3ccc(CNS(=O)(=O)c4ccc(C)cc4)cc3)CC2)cc1, which inhibition is on record?
Its inhibition is inactive: -4.66%.

With CCCCCN(C(=O)CCC(=O)OCC(=O)c1cccc(OC)c1)c1c(N)n(CCCC)c(=O)[nH]c1=O as the molecule, how does the inhibition read?
Its inhibition is active: 58.7%.

How did the inhibition turn out when O=C(CN1CCCCCC1)Nc1ccc(Cl)cc1F was run?
The inhibition was inconclusive: -75.7%.

How did the inhibition turn out when O=C(NC1CCCCC1)C1CCCN(c2nnnn2-c2ccccc2)C1 (stereo not drawn) was run?
The inhibition was inconclusive: -125%.

COc1ccc2ccc(=O)oc2c1 was tested. Which inhibition did it give?
Its inhibition is inconclusive: -327%.

For Cc1cccc(NC(=O)C2CCCN(S(=O)(=O)c3c(C)nn(C)c3C)C2)n1 (stereo not drawn), which inhibition is on record?
Its inhibition is active: 63%.

COc1cccc(C(=O)NCC(c2cccs2)N2CCc3ccccc32)c1 (stereo not drawn) was tested. Which inhibition did it give?
The inhibition was inconclusive: -184%.

How did the inhibition turn out when Cc1ccc(CNC(=O)c2ccccc2NS(=O)(=O)c2ccc(Cl)nc2)cc1 was run?
Its inhibition is inconclusive: -69.3%.

Which inhibition does the source give for CCCCNC(=O)c1nn2c(C(F)(F)F)cc(-c3ccc(OC)cc3)nc2c1Br here?
Its inhibition is inactive: -5.58%.

CC(=O)c1ccc2noc(-c3cccc(F)c3)c2c1 was tested. Which inhibition did it give?
The inhibition was inconclusive: -58.1%.

OCCNCC(O)Cn1c2ccccc2c2ccccc21 (stereo not drawn) was tested. Which inhibition did it give?
Its inhibition is inactive: -21.8%.

With c1ccc2c(c1)[nH]c1nc3nncn3nc12 as the molecule, how does the inhibition read?
Its inhibition is inconclusive: -39.2%.

CCC(=O)Nc1ccc2c(c1)nc1n2CCSC1 was tested. Which inhibition did it give?
The inhibition was inactive: -4.17%.

With COc1ccc(N(CC(=O)Nc2cc([N+](=O)[O-])ccc2C)S(C)(=O)=O)cc1OC as the molecule, how does the inhibition read?
The inhibition was inactive: 3.53%.

How did the inhibition turn out when O=C(CCNC(=O)c1ccc(Cl)cc1)NCc1cccc(C(F)(F)F)c1 was run?
The inhibition was inconclusive: -129%.

Which inhibition does the source give for CCCN(CC(=O)Nc1ccc(F)c(F)c1F)C(=O)C1=COCCO1 here?
The inhibition was inconclusive: -86.2%.

N=c1n(CCN2CCOCC2)c2ccccc2n1CC(=O)c1ccc(Cl)c(Cl)c1 was tested. Which inhibition did it give?
The inhibition was inactive: 11.9%.

Cc1ccc(N2C(=O)N(CC(=O)Nc3ccc(C)c(C)c3)C(=O)C2C)cc1 (stereo not drawn) was tested. Which inhibition did it give?
The inhibition was inconclusive: -188%.

Which inhibition does the source give for Cc1ccc2c(c1)N(C)/C(=C/c1cccc[n+]1C)S2 here?
The inhibition was inactive: -20.4%.

COc1ccc(C)cc1N(C(=O)c1cccc(F)c1)c1nc2ccccc2s1 was tested. Which inhibition did it give?
The inhibition was inactive: 5.3%.

With CCn1c(CNC(=O)Cc2ccc(OC)cc2)n[nH]c1=S as the molecule, how does the inhibition read?
The inhibition was inactive: 2.42%.

Which inhibition does the source give for COc1ccc2nc(-c3ccco3)c(-c3ccco3)nc2c1 here?
Its inhibition is inconclusive: -61.1%.

Which inhibition does the source give for CC(C)NC(=O)N(C)C[C@H]1Oc2ccc(NS(=O)(=O)c3ccccc3)cc2C(=O)N([C@H](C)CO)C[C@H]1C here?
The inhibition was active: 54%.

With COCCSc1ccccc1C(=O)Nc1ccc([N+](=O)[O-])cc1OC as the molecule, how does the inhibition read?
The inhibition was inactive: 2.18%.

Which inhibition does the source give for CCOC(=O)c1c(NC(=O)CN2C(=O)NC(C)(c3ccc(OC(F)F)cc3)C2=O)sc(C)c1C (stereo not drawn) here?
Its inhibition is inactive: 6.21%.

How did the inhibition turn out when C[C@H](CO)N1C[C@H](C)[C@@H](CN(C)S(=O)(=O)c2cccs2)Oc2c(NC(=O)CCC(F)(F)F)cccc2C1=O was run?
The inhibition was active: 52.1%.

With Cc1ccc(OCC(=O)NCCCNC(=O)c2ccccn2)cc1 as the molecule, how does the inhibition read?
The inhibition was inconclusive: -53.4%.

How did the inhibition turn out when CCCCCCNCC(=O)N1CCC(Cc2ccccc2)CC1 was run?
Its inhibition is inactive: 1.16%.

How did the inhibition turn out when O=C(c1cc2ccccc2oc1=O)N(Cc1cccs1)CC1CCCO1 (stereo not drawn) was run?
Its inhibition is inconclusive: -90.9%.

For COc1ccc(C(CNC(=O)c2cccc(S(=O)(=O)Nc3ccccc3OC)c2)N2CCOCC2)cc1 (stereo not drawn), which inhibition is on record?
Its inhibition is inconclusive: -127%.

Which inhibition does the source give for COC(=O)c1cc(C(=O)Nc2cc(C)ccn2)cc([N+](=O)[O-])c1 here?
Its inhibition is inactive: -11.3%.

O=C(Nc1ccon1)c1cccc(C(F)(F)F)c1 was tested. Which inhibition did it give?
Its inhibition is inconclusive: -109%.

How did the inhibition turn out when CCN1CCN(c2nc3ccccc3nc2NS(=O)(=O)c2ccc(NC(C)=O)cc2)CC1 was run?
The inhibition was inconclusive: -101%.

Which inhibition does the source give for Nc1cccc2c1C(=O)N(C(=O)c1ccco1)C2=O here?
Its inhibition is inactive: 25.9%.

Which inhibition does the source give for CN(C)c1ccc(/C=C/c2c([N+](=O)[O-])c(=O)n(C)c(=O)n2C)cc1 here?
Its inhibition is inconclusive: -71.4%.

For O=c1[nH]n(-c2ccc(F)cc2)c2ncccc12, which inhibition is on record?
The inhibition was inactive: 3.54%.

For CCOC(=O)C1(C)NC(c2cccs2)C2C(=O)N(c3ccc(OC)cc3)C(=O)C21 (stereo not drawn), which inhibition is on record?
Its inhibition is active: 54.8%.

Which inhibition does the source give for CNCC[C@H](Oc1cccc2ccccc12)c1cccs1 here?
The inhibition was inconclusive: -55.9%.

For CC(=O)c1ccc(NC(=O)C2CC(c3ccc(F)cc3)=NO2)cc1 (stereo not drawn), which inhibition is on record?
Its inhibition is inactive: 6.16%.

Which inhibition does the source give for Cc1ccc(O)c(NC(=O)c2cc(-c3cccs3)on2)c1 here?
Its inhibition is inactive: -4.01%.

For CC(C)N(C(C)C)S(=O)(=O)c1ccc(N2CCc3ccccc3C2)nc1, which inhibition is on record?
Its inhibition is inconclusive: -87.2%.

For O=C1NCCN1Cc1ccccc1, which inhibition is on record?
Its inhibition is inconclusive: 32.1%.

For COc1ccc2no[n+]([O-])c2c1, which inhibition is on record?
Its inhibition is inconclusive: -58.9%.

Which inhibition does the source give for O=C1c2ccc([N+](=O)[O-])cc2C(=O)N1Cc1cccnc1 here?
The inhibition was active: 52.5%.

With COc1ccc(NC(=O)CS(=O)(=O)c2cn(CC(=O)N3CCOCC3)c3ccccc23)cc1OC as the molecule, how does the inhibition read?
Its inhibition is inconclusive: -69.1%.

Cc1cc(C)nc(SCC(=O)Nc2ccc(S(=O)(=O)Nc3onc(C)c3C)cc2)n1 was tested. Which inhibition did it give?
The inhibition was inactive: -0.242%.

CC(=O)Nc1ccc(Nc2ncnc3c2nnn3Cc2ccccc2Cl)cc1 was tested. Which inhibition did it give?
The inhibition was inactive: 1.4%.

Which inhibition does the source give for O=C1CCc2cc(S(=O)(=O)N3CCCCC3)cc3c2N1CC3 here?
Its inhibition is inconclusive: -113%.

Cc1cccc(C)c1NC(=O)CN(C)C(=O)COc1cccc2c1OC(C)(C)C2 was tested. Which inhibition did it give?
Its inhibition is inactive: -0.309%.

COc1ccc(OCc2nnc(SCC(=O)O)n2N)cc1 was tested. Which inhibition did it give?
The inhibition was inconclusive: -176%.
